This note sets out measurements from paper PMC4799797.

Amino acid sequences for entries named in this document (tags omitted). Residues count along the entry.
UniProt Q01974, residues 34-943: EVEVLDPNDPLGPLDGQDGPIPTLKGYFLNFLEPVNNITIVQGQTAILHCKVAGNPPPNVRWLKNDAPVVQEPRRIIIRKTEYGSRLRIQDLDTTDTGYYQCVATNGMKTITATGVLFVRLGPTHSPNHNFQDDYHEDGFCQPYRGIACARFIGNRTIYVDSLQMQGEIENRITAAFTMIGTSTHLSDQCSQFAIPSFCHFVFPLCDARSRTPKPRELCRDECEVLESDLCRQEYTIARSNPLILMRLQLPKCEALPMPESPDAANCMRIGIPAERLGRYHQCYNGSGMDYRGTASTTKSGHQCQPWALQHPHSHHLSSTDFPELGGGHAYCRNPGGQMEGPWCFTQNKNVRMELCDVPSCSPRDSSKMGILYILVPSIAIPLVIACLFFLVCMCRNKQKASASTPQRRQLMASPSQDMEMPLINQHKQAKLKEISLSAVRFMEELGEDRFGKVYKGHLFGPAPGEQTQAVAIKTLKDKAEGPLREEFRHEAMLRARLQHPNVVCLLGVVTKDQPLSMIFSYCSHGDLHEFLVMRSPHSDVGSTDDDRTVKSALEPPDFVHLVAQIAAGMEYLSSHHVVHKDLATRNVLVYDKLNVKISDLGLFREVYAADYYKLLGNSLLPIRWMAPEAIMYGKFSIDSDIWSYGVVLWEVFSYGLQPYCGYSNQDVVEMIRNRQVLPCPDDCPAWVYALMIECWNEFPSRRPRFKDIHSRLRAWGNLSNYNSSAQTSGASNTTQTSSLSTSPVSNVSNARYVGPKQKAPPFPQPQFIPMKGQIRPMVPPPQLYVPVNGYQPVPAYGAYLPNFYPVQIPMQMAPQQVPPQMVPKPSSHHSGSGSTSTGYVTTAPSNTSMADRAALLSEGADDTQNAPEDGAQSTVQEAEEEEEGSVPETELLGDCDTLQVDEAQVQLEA

The target of the assay is Flag-tagged ROR2 (UniProt Q01974). In words: co-IP; MCF-7 cells co-transfected with ROR2-Flag and Dvl1-myc, Dvl2-myc or Dvl3-myc; 24 h later stimulated 45 min with control supernatant or Wnt5a-conditioned medium; lysis in 10 mM HEPES pH 7.4, 150 mM NaCl, 0.5 % NP-40, 0.5 % OGP; immunoprecipitation with anti-Flag antibody and anti-Flag M2 magnetic beads; detection with anti-myc and anti-Flag.

No constants are given. Whether binding was seen depends on the method and setting. Binding seen in cells or lysates may run through a third protein. Some binding calls cover weakened binding; strength is not graded here. Where a sequence is shown, tags or fusion partners need not be part of it.

B1: myc-tagged Dvl1 (protein, UniProt O14640 1-695)
chain: MAETKIIYHMDEEETPYLVKLPVAPERVTLADFKNVLSNRPVHAYKFFFKSMDQDFGVVKEEIFDDNAKLPCFNGRVVSWLVLAEGAHSDAGSQGTDSHTDLPPPLERTGGIGDSRPPSFHPNVASSRDGMDNETGTESMVSHRRERARRRNREEAARTNGHPRGDRRRDVGLPPDSASTALSSELESSSFVDSDEDGSTSRLSSSTEQSTSSRLIRKHKRRRRKQRLRQADRASSFSSITDSTMSLNIVTVTLNMERHHFLGISIVGQSNDRGDGGIYIGSIMKGGAVAADGRIEPGDMLLQVNDVNFENMSNDDAVRVLREIVSQTGPISLTVAKCWDPTPRSYFTVPRADPVRPIDPAAWLSHTAALTGALPRYGTSPCSSAVTRTSSSSLTSSVPGAPQLEEAPLTVKSDMSAVVRVMQLPDSGLEIRDRMWLKITIANAVIGADVVDWLYTHVEGFKERREARKYASSLLKHGFLRHTVNKITFSEQCYYVFGDLCSNLATLNLNSGSSGTSDQDTLAPLPHPAAPWPLGQGYPYQYPGPPPCFPPAYQDPGFSYGSGSTGSQQSEGSKSSGSTRSSRRAPGREKERRAAGAGGSGSESDHTAPSGVGSSWRERPAGQLSRGSSPRSQASATAPGLPPPHPTTKAYTVVGGPPGGPPVRELAAVPPELTGSRQSFQKAMGNPCEFFVDIM
For B1, the binding entry was “binds”.
